Reference: the supplement of paper PMC8975748
Structures can show the parent of a compound that is named as a salt. ± gives the standard deviation of the averaged measurements. This is one part of the list. Values are raw readings; no control value is given beside them.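 One yeast strain harboring four plasmids, each bearing a fluorescent protein plus an amino-acid or uracil synthesis gene, founds the community. Random loss of plasmids produces mixed prototroph and auxotroph subpopulations. Cells were fixed, then counted with automated confocal fluorescence imaging, with DMSO-treated wells as vehicle reference.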

system: Saccharomyces cerevisiae BY4741 SeMeCo community; experiment: imaged cell count per well (cells); higher = more cells; details: 10 µM; 24 h; SM minimal medium
Method: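 Same SeMeCo high-content imaging drug screen: Selleck FDA-approved drugs at 10 µM, 24 h in SM medium, 384-well plates, 3 replicates.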

Compound	imaged cell count per well
CN[C@H]1C(=O)N[C@@H]2Cc3ccc(cc3)Oc3cc4cc(c3O[C@@H]3O[C@H](C(=O)O)[C@@H](O)[C@H](O)[C@H]3NC(=O)CCCCCCCCC(C)C)Oc3ccc(cc3Cl)[C@@H](O)[C@@H]3NC(=O)[C@H](NC(=O)[C@@H]4NC(=O)[C@@H](NC2=O)c2cc(cc(O)c2Cl)Oc2cc1ccc2O)c1ccc(O)c(c1)-c1c(O[C@H]2O[C@H](CO)[C@@H](O)[C@H](O)[C@@H]2O)cc(O)cc1[C@@H](C(=O)NCCCN(C)C)NC3=O [Dalbavancin]	21400 ± 3500
Cc1nnc(SCC2=C(C(=O)O)N3C(=O)[C@@H](NC(=O)Cn4cnnn4)[C@H]3SC2)s1 [Cefazolin Sodium]	26600 ± 2500
CO/N=C(\C(=O)N[C@@H]1C(=O)N2C(C(=O)O)=C(CSc3nnnn3C)CS[C@H]12)c1csc(N)n1 [Cefmenoxime hydrochloride]	21600 ± 11000
COc1cc(O)c(C(=O)Nc2nc(C(=O)NCCN(C(C)C)C(C)C)cs2)cc1OC [Acotiamide hydrochloride]	24800 ± 5000
CCOC(=O)C1=C(COCCN)NC(C)=C(C(=O)OC)[C@@H]1c1ccccc1Cl [Levamlodipine]	27100 ± 4600
CO/N=C(\C(=O)N[C@@H]1C(=O)N2C(C(=O)[O-])=C(C[n+]3cccc4c3CCC4)CS[C@H]12)c1csc(N)n1 [Cefpirome sulfate]	21900 ± 9500
CCOC(=O)C1=C(COCCN)NC(C)=C(C(=O)OC)C1c1ccccc1Cl (stereo not drawn) [Amlodipine]	20500 ± 1300
CC1(C)S[C@@H]2[C@H](NC(=O)[C@H](NC(=O)N3CCNC3=O)c3ccccc3)C(=O)N2[C@H]1C(=O)O [Azlocillin sodium salt]	26000 ± 9400
CC[C@H]1OC(=O)C[C@@H](O)[C@H](C)[C@@H](O[C@@H]2O[C@H](C)[C@@H](O[C@H]3C[C@@](C)(O)[C@@H](O)[C@H](C)O3)[C@H](N(C)C)[C@H]2O)[C@@H](CC=O)C[C@@H](C)C(=O)/C=C/C(C)=C/[C@@H]1CO[C@@H]1O[C@H](C)[C@@H](O)[C@@H](OC)[C@H]1OC [Tylosin]	29800 ± 1300
CCc1cccc2c3c([nH]c12)C(CC)(CC(=O)O)OCC3 (stereo not drawn) [Etodolac]	24400 ± 5000
CO[C@H]1C[C@@H]2CC[C@@H](C)[C@@](O)(O2)C(=O)C(=O)N2CCCC[C@H]2C(=O)O[C@H]([C@H](C)C[C@@H]2CC[C@@H](OC(=O)C(C)(CO)CO)[C@H](OC)C2)CC(=O)[C@H](C)/C=C(\C)[C@@H](O)[C@@H](OC)C(=O)[C@H](C)C[C@H](C)/C=C/C=C/C=C/1C	7520 ± 1200
Clc1ccc(CCC(Cn2ccnc2)Sc2c(Cl)cccc2Cl)cc1 (stereo not drawn) [Butoconazole nitrate]	2860 ± 580
CCCNCC(O)COc1ccccc1C(=O)CCc1ccccc1 (stereo not drawn) [Propafenone HCl]	25300 ± 1600
COC(=O)C1=C(C)NC(C)=C(C(=O)OCCN2CCN(C(c3ccccc3)c3ccccc3)CC2)C1c1cccc([N+](=O)[O-])c1 (stereo not drawn) [Manidipine]	27600 ± 3300
NCC[C@H](O)C(=O)N[C@@H]1C[C@H](N)[C@@H](O[C@H]2O[C@H](CN)[C@@H](O)[C@H](O)[C@H]2O)[C@H](O)[C@H]1O[C@H]1O[C@H](CO)[C@@H](O)[C@H](N)[C@H]1O [Amikacin disulfate]	27000 ± 5800
CC[C@H]1OC(=O)C[C@@H](O)[C@H](C)[C@@H](O[C@@H]2O[C@H](C)[C@@H](O)[C@H](N(C)C)[C@H]2O)[C@@H](CCN2C[C@H](C)C[C@H](C)C2)C[C@@H](C)C(=O)/C=C/C(C)=C/[C@@H]1CO[C@@H]1O[C@H](C)[C@@H](O)[C@@H](OC)[C@H]1OC [Tilmicosin]	23500 ± 3500
COc1ccc2[nH]c([S+]([O-])Cc3ncc(C)c(OC)c3C)nc2c1 (stereo not drawn) [Omeprazole Sodium]	29500 ± 3300
COc1ccc(-c2nc3cc(C4=NNC(=O)CC4C)ccc3[nH]2)cc1 (stereo not drawn) [Pimobendan]	25600 ± 1500
NC1CCN(c2nc3c(cc2F)c(=O)c(C(=O)O)cn3-c2ccc(F)cc2F)C1 (stereo not drawn) [Tosufloxacin p-Toluenesulfonate Hydrate]	26400 ± 6900

Compound	imaged cell count per well
CN(C)[C@@H]1C(O)=C(C(N)=O)C(=O)[C@@]2(O)C(O)=C3C(=O)c4c(O)cccc4[C@@](C)(O)[C@H]3[C@H](O)[C@@H]12 [Oxytetracycline Dihydrate]	20700 ± 3200
CO/N=C(\C(=O)N[C@@H]1C(=O)N2C(C(=O)O)=C(Cn3ccc(=N)n3CCO)CS[C@H]12)c1csc(N)n1 [Cefoselis Sulfate]	26900 ± 10000
NC[C@H]1O[C@H](O[C@H]2[C@H](O)[C@@H](O[C@H]3O[C@H](CO)[C@@H](O)[C@H](N)[C@H]3O)[C@H](N)C[C@@H]2N)[C@H](O)[C@@H](O)[C@@H]1O [Kanamycin sulfate]	27100 ± 10000
CCn1cc(C(=O)O)c(=O)c2cc(F)c(N3CCNCC3)nc21 [Enoxacin Sesquihydrate]	26900 ± 5700
CCN(CC)CCOCCOC(=O)C1(c2ccccc2)CCCC1 [Pentoxyverine Citrate]	24400 ± 6400
NCCc1ccc(O)c(O)c1 [Dopamine HCl]	26800 ± 6400
CCOc1cc(NC(C)=O)ccc1C(=O)OC [Ethopabate]	17100 ± 12000
CC(N)C12CC3CC(CC(C3)C1)C2 (stereo not drawn) [Rimantadine]	17800 ± 6600
CNCC[C@H](Oc1cccc2ccccc12)c1cccs1 [Duloxetine HCl]	21800 ± 7300
CN1CCN(C2=Nc3cc(Cl)ccc3Nc3ccccc32)CC1 [Clozapine]	24500 ± 2600
Cc1ncc([N+](=O)[O-])n1CCO [Metronidazole]	25800 ± 2800
CCCCCC(=O)O[C@]1(C(C)=O)CC[C@H]2[C@@H]3CCC4=CC(=O)CC[C@]4(C)[C@H]3CC[C@@]21C [Hydroxyprogesterone caproate]	23200 ± 2200
O=C1CC2(CCCC2)CC(=O)N1CCCCN1CCN(c2ncccn2)CC1 [Buspirone HCl]	22500 ± 6800
O=C1CCc2cc(OCCCCc3nnnn3C3CCCCC3)ccc2N1 [Cilostazol]	26000 ± 4800
NC[C@H]1O[C@H](O[C@H]2[C@H](O[C@@H]3O[C@H](CO)[C@@H](O)[C@H]3O)[C@@H](O)[C@H](N)C[C@@H]2N)[C@H](N)[C@@H](O)[C@@H]1O [Ribostamycin Sulfate]	18200 ± 3100
C#C[C@]1(O)CC[C@H]2[C@@H]3CCc4cc(OC5CCCC5)ccc4[C@H]3CC[C@@]21C [Quinestrol]	23600 ± 5300
Fc1ccc(C(c2ccc(F)cc2)N2CCN(C/C=C/c3ccccc3)CC2)cc1 [Flunarizine 2HCl]	18700 ± 2300
C[C@@H](O)[C@H]1C(=O)N2C(C(=O)O)=C(S[C@@H]3CN[C@H](C(=O)N(C)C)C3)[C@H](C)[C@H]12 [Meropenem Trihydrate]	18300 ± 9000
Cc1noc(NS(=O)(=O)c2ccc(N)cc2)c1C [Sulfisoxazole]	18900 ± 930

Rewritten with bars between the fields: two of the compounds above
Compound | imaged cell count per well
COc1ccc(-c2nc3cc(C4=NNC(=O)CC4C)ccc3[nH]2)cc1 (stereo not drawn) [Pimobendan] | 25600 ± 1500
NC1CCN(c2nc3c(cc2F)c(=O)c(C(=O)O)cn3-c2ccc(F)cc2F)C1 (stereo not drawn) [Tosufloxacin p-Toluenesulfonate Hydrate] | 26400 ± 6900
